These are literature values, as cited in patent US20090196910A1, “Sustained-Release Preparation of Statin Drugs” (PFICKER PHARMACEUTICALS LTD., priority 2005, published 2009).

For this series the following is noted: after the oral administration; cited from earlier work.

On to `CC(C)c1c(C(=O)Nc2ccccc2)c(-c2ccccc2)c(-c2ccc(F)cc2)n1CC[C@@H](O)C[C@@H](O)CC(=O)O` [atovastatin], for which the “time to plasma peak” value was 1 to 2 h.
